Values from PubChem BioAssay AID1259425 (University of Nebraska Medical Center, 2018).

Test: 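Find knockdowns that reproduce the gene expression pattern seen when KSR1 is lost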 (primary screen)
System: HCT116 human colon cancer cells
Knock-down reagent: siRNA pool against human genes, 50 nM siRNA
Detection: 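mRNA of six signature genes measured together by branched-DNA assay after 50 nM siRNA pool, blank removed, divided by geometric mean of two housekeeping genes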
Reading the numbers: BNIP3L mRNA: higher = more BNIP3L transcript after knockdown; NDRG1 mRNA: higher = more NDRG1 transcript after knockdown; BNIP3 mRNA: higher = more BNIP3 transcript after knockdown
Shown is one part, drawn at random, of about 14,000 reagents. Not all columns of the deposit are shown. Not stated in the record: the time to read-out.

| target gene | BNIP3L mRNA, set 1 | NDRG1 mRNA, set 1 | BNIP3 mRNA, set 1 |
| --- | --- | --- | --- |
| CREB3L2 (cAMP responsive element binding protein 3 like 2) | 0.0563 | 0.358 | 0.321 |
| CDY2A (chromodomain Y-linked 2A) | 0.0784 | 0.209 | 0.354 |
| LASP1 (LIM and SH3 protein 1) | 0.062 | 0.559 | 0.334 |
| DROSHA (drosha ribonuclease III) | 0.129 | 0.169 | 0.154 |
| SGK3 (serum/glucocorticoid regulated kinase family member 3) | 0.0513 | 0.159 | 0.28 |
| LIPT1 (lipoyltransferase 1) | 0.139 | 0.189 | 0.402 |
| PLAAT2 (phospholipase A and acyltransferase 2) | 0.215 | 0.237 | 0.48 |
| PMP2 (peripheral myelin protein 2) | 0.089 | 0.113 | 0.275 |
| CLIP2 (CAP-Gly domain containing linker protein 2) | 0.092 | 0.178 | 0.31 |
| ADGRA2 (adhesion G protein-coupled receptor A2) | 0.176 | 0.227 | 0.221 |
| RPL21 (ribosomal protein L21) | 0.546 | 0.481 | 0.526 |
| NTSR1 (neurotensin receptor 1) | 0.17 | 0.108 | 0.239 |
| TADA2A (transcriptional adaptor 2A) | 0.111 | 0.0905 | 0.216 |
| NDUFAB1 (NADH:ubiquinone oxidoreductase subunit AB1) | 0.1 | 0.392 | 0.25 |
| KIF18A (kinesin family member 18A) | 0.074 | 0.0773 | 0.313 |
| RANBP9 (RAN binding protein 9) | 0.0754 | 0.102 | 0.346 |
| RTN4RL1 (reticulon 4 receptor like 1) | 0.0919 | 0.111 | 0.293 |
| DENND3 (DENN domain containing 3) | 0.111 | 0.214 | 0.241 |
| SLC8A1 | 0.109 | 0.148 | 0.398 |
| HS2ST1 (heparan sulfate 2-O-sulfotransferase 1) | 0.121 | 0.18 | 0.335 |
| NOM1 (nucleolar protein with MIF4G domain 1) | 0.0891 | 0.137 | 0.407 |
| CETP (cholesteryl ester transfer protein) | 0.128 | 0.0575 | 0.321 |
| HHAT (hedgehog acyltransferase) | 0.0738 | 0.26 | 0.349 |
| KIAA1549 | 0.184 | 0.176 | 0.299 |
| AXIN1 (axin 1) | 0.0545 | 0.138 | 0.167 |
| TNXB (tenascin XB) | 0.202 | 0.307 | 0.283 |
| TLR5 (toll like receptor 5) | 0.0686 | 0.138 | 0.323 |
| FAM168A (family with sequence similarity 168 member A) | 0.119 | 0.632 | 0.349 |
| UNC50 (unc-50 inner nuclear membrane RNA binding protein) | 0.103 | 0.151 | 0.309 |
| NPY1R (neuropeptide Y receptor Y1) | 0.274 | 0.895 | 0.644 |
| LY6G5B (lymphocyte antigen 6 family member G5B) | 0.136 | 0.116 | 0.123 |
| TMEM248 (transmembrane protein 248) | 0.0855 | 0.121 | 0.154 |
| RPS25 (ribosomal protein S25) | 0.201 | 0.378 | 0.508 |
| MAZ (MYC associated zinc finger protein) | 0.131 | 0.161 | 0.235 |

An excerpt from above, limited to “BNIP3 mRNA, set 1”.
RANBP9 (RAN binding protein 9) = 0.346
RTN4RL1 (reticulon 4 receptor like 1) = 0.293
DENND3 (DENN domain containing 3) = 0.241
